Measurements: PubChem BioAssay AID1671190 (National Center for Advancing Translational Sciences (NCATS), 2021)
Among all 580,000 compounds or so, about 6,100 (1.1%) were called active. Roughly 15% stayed inconclusive and do not appear here. The call rests on the fitted dose curve; in most records, active means well fitted inhibition curve with a large enough effect; inconclusive means small, poorly fitted or top-dose-only effect, or another doubt; inactive means no such curve, though single readings can be large or run the other way. The list shows a part of the results, in another mix than the full data. Entries without a call were filed so in the source. Where a structure was tested more than once in an assay, its records may differ in their call.

Protein sequences, listed by entry. Tags and fused reporters are not part of them. Lines headed by an entry give the natural chain unless they say otherwise; changes in a name come on top.
UniProt P18054: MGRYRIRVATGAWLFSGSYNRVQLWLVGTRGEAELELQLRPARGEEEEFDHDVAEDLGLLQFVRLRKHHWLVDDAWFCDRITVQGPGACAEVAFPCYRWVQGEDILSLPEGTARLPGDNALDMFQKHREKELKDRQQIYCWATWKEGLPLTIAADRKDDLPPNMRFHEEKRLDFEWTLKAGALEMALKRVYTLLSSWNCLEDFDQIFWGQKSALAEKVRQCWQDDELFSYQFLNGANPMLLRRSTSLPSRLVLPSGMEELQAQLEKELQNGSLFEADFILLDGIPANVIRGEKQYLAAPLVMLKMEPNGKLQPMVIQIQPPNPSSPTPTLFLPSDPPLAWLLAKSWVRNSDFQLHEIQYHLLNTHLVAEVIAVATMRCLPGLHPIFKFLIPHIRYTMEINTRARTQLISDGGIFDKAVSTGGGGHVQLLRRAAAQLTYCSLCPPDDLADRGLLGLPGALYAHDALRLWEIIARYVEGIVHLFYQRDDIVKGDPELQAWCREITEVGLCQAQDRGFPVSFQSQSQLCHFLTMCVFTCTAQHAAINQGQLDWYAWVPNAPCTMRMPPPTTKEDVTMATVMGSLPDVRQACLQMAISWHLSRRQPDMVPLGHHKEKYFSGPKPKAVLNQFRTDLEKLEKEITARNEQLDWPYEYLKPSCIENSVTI

molecular target: Polyunsaturated fatty acid lipoxygenase ALOX12 (Homo sapiens) (UniProt P18054); experiment: Primary qHTS assay for inhibitors of human arachidonate 12S-lipoxygenase (ALOX12): Round 2; conditions: purified 12hLO, xylenol orange hydroperoxide absorbance; activity change, negative = inhibition: at 0.00344 µM (top of the series) unless noted
Outline: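 Hydroperoxide product was detected by ferrous iron/xylenol orange as the 573 to 405 nm absorbance ratio. Arachidonic acid at 40 uM (final) was turned over for 30 min at room temperature by 150 nM human 12hLO, pH 7.0 Hepes buffer, after 15 min compound preincubation.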
On the % scale 0 is the no-effect control and ±100 the full control effect; potency means the concentration at half of the fitted maximal effect.

SMILES	activity change, negative = inhibition	Potency
CC[N+]1(CC)CCC(OC(=O)C(O)(c2ccccc2)c2ccccc2)C1 (stereo unspecified)	4.12%	–
O=C(Nc1ccc(Br)cc1)c1cc(Br)cc(Br)c1O	-4.41%	–
O=C(O)C1=NOC2CN(Cc3cncs3)CC12 (stereo unspecified)	–	active: 12.6 µM
CCCCCCCCCCCC[N+](C)(C)CCOc1ccccc1	6.32%	–
FC(F)(F)c1cccc(C2=CCN(CCc3ccc4ccccc4c3)CC2)c1	31%	–
CC(=O)[O][Hg][c]1ccccc1	-13%	–
Cc1cc2c(C(C)C)c(O)c(O)c(C=O)c2c(O)c1-c1c(C)cc2c(C(C)C)c(O)c(O)c(C=O)c2c1O	-12%	–
CC(N)C(=O)OC(C)(C)Cc1ccc(Cl)cc1 (stereo unspecified)	7.21%	–
COc1ccc(C(=O)c2c(C)n(CCN3CCOCC3)c3ccccc23)cc1	-0.299%	–
CC(=O)OCC[N+](C)(C)C	9.95%	–
C[C@]12CC[C@H]3[C@@H](CCC4=CC(=O)CC[C@@]43C)[C@@H]1CC[C@@H]2C(=O)O	20.1%	–
CCN(CC)CCOC(=O)C(O)(c1ccccc1)c1ccccc1	15.6%	–
CC(C)(C)OC(=O)c1ncn2c1[C@@H]1CCCN1C(=O)c1c(Br)cccc1-2	-13.8%	–
OC(O)C(Cl)(Cl)Cl	-0.469%	–
COCC(=O)N(c1c(C)cccc1C)C(C)C(=O)OC (stereo unspecified)	-48%	–
CNCC(O)c1ccc(O)cc1 (stereo unspecified)	11.4%	–

SMILES	activity change, negative = inhibition	Potency
CC(C)NCC(O)c1ccc(N)c(C#N)c1 (stereo unspecified)	-6.11%	–
CCC(OC(C)=O)C(CC(C)NC)(c1ccccc1)c1ccccc1 (stereo unspecified)	-22.7% [at 0.00599 µM]	–
O=c1[nH]c2cc(Cl)ccc2n1C1CCNCC1	1.45%	–
C[C@]12CCC(=O)C=C1CC[C@@H]1[C@@H]2CC[C@@]2(C)[C@H]1CC[C@]2(C)O	16.2%	–
CC[C@]1(O)CC[C@H]2[C@@H]3CCC4=CCCC[C@@H]4[C@H]3CC[C@@]21C	-6.64%	–
O=c1c(C2CC(c3ccc(-c4ccc(Br)cc4)cc3)Cc3ccccc32)c(O)sc2ccccc12 (stereo unspecified)	27%	–
COC(=O)[C@@H](N)CCCN/C(N)=N/[N+](=O)[O-]	11.4%	–
Cc1ccc(-n2c(/C=C/c3ccco3)nc3ccccc3c2=O)cc1	–	active: 15.8 µM
Nc1ccc(Cl)cc1C(=O)c1ccccc1F	27.2%	–
COc1cc(CC(C)N)c(OC)cc1Br (stereo unspecified)	5.45% [at 0.00599 µM]	–
Clc1ccccc1N1CCNCC1	-59.2%	–
N#CC(C#N)=Cc1ccc(O)c(O)c1	-9.39%	–
COP(=O)(OC)OC=C(Cl)Cl	40.4%	–
CN1CCC(O)(c2ccc(F)cc2)C(C(=O)c2ccc(F)cc2)C1 (stereo unspecified)	6.29%	–
Oc1ccc2c3c1O[C@H]1[C@@H](O)C=C[C@H]4[C@@H](C2)NCC[C@@]341	14.9% [at 0.00599 µM]	–

A stretch from further up, as a working copy:
SMILES	activity change, negative = inhibition	Potency
COc1cc(CC(C)N)c(OC)cc1Br (stereo unspecified)	5.45% [at 0.00599 µM]	–
Clc1ccccc1N1CCNCC1	-59.2%	–
N#CC(C#N)=Cc1ccc(O)c(O)c1	-9.39%	–
